# Experimental data: PubChem BioAssay AID248 (DTP/NCI, 2004)
# The list does not hold the whole screen: its compounds were picked by chemical class. Other doses and runs of a compound may be missing. T/C gives the treated animals as a percentage of the vehicle group. Some doses have a count of surviving animals in place of a T/C: the source files T/C as zero there, which appears to mark a toxic dose or a test without result, not a measured value. Counts of survivors are from the toxicity check (mostly the fifth day) where no day follows; animals may have died later. Schedule codes are those of the source, taken here to give the interval after Q, in days (D) or hours (H), and the number of doses after X. Some doses were run more than once; their values stand side by side, smallest first. Where survival is the endpoint, this PubChem deposit counts one and a half times the control or more as active, and values a quarter to a half above the control carry no call in these data; other NCI protocols may use other cut-offs. Some entries show no survivor count and are marked so; the dose need not have been tolerated. Some T/C values carry the count of animals alive at the toxicity check (mostly the fifth day); without a count or a note in brackets, all were alive then.
# Tested on: L1210 leukemia ip in BDF1 mice, survival T/C
# Experiment: NCI In Vivo Anticancer Drug Screen. Data for tumor model L1210 Leukemia (intraperitoneal) in B6D2F1 (BDF1) mice
# Conditions: higher T/C = longer survival
# [1] = T/C endpoint: mean survival time, dose: 100.0 mg/kg/injection, schedule: Q01DX001 (ip), vehicle: saline
# [2] = T/C endpoint: mean survival time, dose: 200.0 mg/kg/injection, schedule: Q01DX001 (ip), vehicle: saline
# [3] = T/C endpoint: mean survival time, dose: 400.0 mg/kg/injection, schedule: Q01DX001 (ip), vehicle: saline
smiles,measurement,setting,value
NC(=O)CNc1ccc([As](=O)(O)O)cc1,T/C,"T/C endpoint: mean survival time, dose: 100.0 mg/kg/injection, schedule: Q01DX001 (ip), vehicle: Klucel (hydroxypropylcellulose) (HPC)",101 % of control
same,T/C,"T/C endpoint: mean survival time, dose: 200.0 mg/kg/injection, schedule: Q01DX001 (ip), vehicle: Klucel (hydroxypropylcellulose) (HPC)",93 % of control
same,T/C,"T/C endpoint: mean survival time, dose: 400.0 mg/kg/injection, schedule: Q01DX001 (ip), vehicle: Klucel (hydroxypropylcellulose) (HPC)",93 % of control
N/C(=N/[N+](=O)[O-])N(CCBr)N=O.NC1=CCCN1[N+](=O)[O-],T/C,"T/C endpoint: mean survival time, dose: 50.0 mg/kg/injection, schedule: Q01DX001 (ip), vehicle: saline",98 % of control
same,T/C,"T/C endpoint: mean survival time, dose: 56.0 mg/kg/injection, schedule: Q01DX015 (ip), vehicle: saline",93 % of control
same,T/C,"T/C endpoint: mean survival time, dose: 84.0 mg/kg/injection, schedule: Q01DX015 (ip), vehicle: saline",96 % of control
same,T/C,[1],98 % of control
same,T/C,"T/C endpoint: mean survival time, dose: 126.0 mg/kg/injection, schedule: Q01DX015 (ip), vehicle: saline",96 % of control
same,T/C,"T/C endpoint: mean survival time, dose: 189.0 mg/kg/injection, schedule: Q01DX015 (ip), vehicle: saline",100 % of control
same,T/C,[2],98 % of control
same,survivor count,[3],2 of 4
CC1CC([N+](=O)[O-])C(C2C([N+](=O)[O-])CC(C)CC2[N+](=O)[O-])C([N+](=O)[O-])C1 (configuration not stated),T/C,[1],102 % of control [survivor count not shown]
same,T/C,[2],101 % of control [survivor count not shown]
same,T/C,[3],98 % of control [survivor count not shown]
CN(C)P(N)(Cl)(c1ccccc1)c1ccccc1,T/C,"T/C endpoint: mean survival time, dose: 10.0 mg/kg/injection, schedule: Q01DX001 (ip), vehicle: saline",111 % of control
same,T/C,"T/C endpoint: mean survival time, dose: 20.0 mg/kg/injection, schedule: Q01DX001 (ip), vehicle: saline",114 % of control
same,T/C,"T/C endpoint: mean survival time, dose: 40.0 mg/kg/injection, schedule: Q01DX001 (ip), vehicle: saline",117 % of control
same,survivor count,[1],0 of 6
same,survivor count,[2],0 of 6
same,survivor count,[3],1 of 6
CSc1ncc(COP(=S)(Cl)Cl)c(N)n1,T/C,"T/C endpoint: mean survival time, dose: 25.0 mg/kg/injection, schedule: Q01DX001 (ip), vehicle: saline with Tween-80",102 % of control
same,T/C,"T/C endpoint: mean survival time, dose: 50.0 mg/kg/injection, schedule: Q01DX001 (ip), vehicle: saline with Tween-80",100 % of control
same,T/C,"T/C endpoint: mean survival time, dose: 100.0 mg/kg/injection, schedule: Q01DX001 (ip), vehicle: saline with Tween-80",95 % of control
CCOP1OCC(c2ccccc2)O1 (configuration not stated),T/C,[1],96 % of control
same,T/C,[2],107 % of control
same,T/C,[3],96 % of control
NP(=O)(O)N(CCCl)CCCl,T/C,"T/C endpoint: mean survival time, dose: 15.0 mg/kg/injection, schedule: Q01DX009 (ip), vehicle: saline",106 % of control
same,T/C,"T/C endpoint: mean survival time, dose: 30.0 mg/kg/injection, schedule: Q01DX009 (ip), vehicle: saline",114 % of control
same,T/C,"T/C endpoint: mean survival time, dose: 58.0 mg/kg/injection, schedule: Q01DX009 (ip), vehicle: saline",130 % of control
same,T/C,"T/C endpoint: mean survival time, dose: 88.0 mg/kg/injection, schedule: Q01DX001 (ip), vehicle: saline",112 % of control
same,T/C,"T/C endpoint: mean survival time, dose: 88.0 mg/kg/injection, schedule: Q01DX009 (ip), vehicle: saline",121 % of control
same,T/C,[1],103 and 114 % of control
same,T/C,"T/C endpoint: mean survival time, dose: 133.0 mg/kg/injection, schedule: Q01DX001 (ip), vehicle: saline",122 % of control
same,T/C,"T/C endpoint: mean survival time, dose: 133.0 mg/kg/injection, schedule: Q01DX009 (ip), vehicle: saline",113 % of control [5 of 6 alive]
same,T/C,[2],130 [3 of 4 alive] and 130 % of control [5 of 6 alive]
same,survivor count,[2],2 of 6
same,survivor count,"T/C endpoint: mean survival time, dose: 200.0 mg/kg/injection, schedule: Q01DX009 (ip), vehicle: saline",3 of 6
same,survivor count,"T/C endpoint: mean survival time, dose: 300.0 mg/kg/injection, schedule: Q01DX001 (ip), vehicle: saline",1 of 6
same,survivor count,[3],0 of 6 and 1 of 4
same,T/C,"T/C endpoint: median survival time, dose: 12.5 mg/kg/injection, schedule: Q01DX009 (ip), vehicle: saline",127 % of control
same,T/C,"T/C endpoint: median survival time, dose: 25.0 mg/kg/injection, schedule: Q01DX009 (ip), vehicle: saline",144 % of control
same,T/C,"T/C endpoint: median survival time, dose: 50.0 mg/kg/injection, schedule: Q01DX001 (ip), vehicle: saline",127 % of control
same,T/C,"T/C endpoint: median survival time, dose: 50.0 mg/kg/injection, schedule: Q01DX009 (ip), vehicle: saline",188 % of control
same,T/C,"T/C endpoint: median survival time, dose: 100.0 mg/kg/injection, schedule: Q01DX001 (ip), vehicle: saline",144 % of control
same,T/C,"T/C endpoint: median survival time, dose: 100.0 mg/kg/injection, schedule: Q01DX009 (ip), vehicle: saline",133 % of control
same,T/C,"T/C endpoint: median survival time, dose: 200.0 mg/kg/injection, schedule: Q01DX001 (ip), vehicle: saline",122 % of control [7 of 8 alive]
same,survivor count,"T/C endpoint: median survival time, dose: 400.0 mg/kg/injection, schedule: Q01DX001 (ip), vehicle: saline",1 of 8
